Test: in vivo
Details: mouse

CCC[C@@H]1C[C@@H](C(=O)N[C@@H]([C@H]2O[C@H](SC)[C@H](O)[C@@H](O)[C@H]2O)[C@H](C)Cl)N(C)C1 [Clindamycin]
concentration at 0.5 h (po, 25 mg/kg): 800 ng/mL | concentration at 1 h (po, 25 mg/kg): 500 ng/mL | concentration at 3 h (po, 25 mg/kg): 300 ng/mL | concentration at 0.5 h (po, 50 mg/kg): 900 ng/mL | concentration at 1 h (po, 50 mg/kg): 500 ng/mL | concentration at 3 h (po, 50 mg/kg): 300 ng/mL | concentration at 0.5 h (po, 100 mg/kg): 2800 ng/mL | concentration at 1 h (po, 100 mg/kg): 1300 ng/mL | concentration at 3 h (po, 100 mg/kg): 600 ng/mL | concentration at 0.5 h (sc, 25 mg/kg): 2100 ng/mL | concentration at 1 h (sc, 25 mg/kg): 800 ng/mL | concentration at 2 h (sc, 25 mg/kg): 400 ng/mL | concentration at 0.5 h (sc, 50 mg/kg): 5800 ng/mL | concentration at 1 h (sc, 50 mg/kg): 3400 ng/mL | concentration at 2 h (sc, 50 mg/kg): 300 ng/mL | concentration at 0.5 h (sc, 100 mg/kg): 9500 ng/mL | concentration at 1 h (sc, 100 mg/kg): 5200 ng/mL | concentration at 2 h (sc, 100 mg/kg): 400 ng/mL
